PubChem BioAssay AID1259272 | Sanger Institute | 2017
This is an unselected part of 794 deposited reagents. In the full data, 7 (0.88%) are marked active. 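Essential calls reflect knock-down without drug only, not synergy with drugs; drug exposure length not given.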 Not all columns of the deposit are shown. The record does not give: the amount of reagent, the time to read-out.

- Test: 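Kinome-wide siRNA search for genes whose silencing boosts targeted drug effects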 (primary screen)
- System: SW1116 human colorectal cancer cells
- Knock-down reagent: siRNA pool against human genes
- Challenge: anchor drugs BYL719 (1 µM), cetuximab (5 µg/ml) or trametinib (10 nM), or DMSO vehicle; exposure length not given
- Read-out: 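Cell survival as a fraction of wells given a non-targeting pool, averaged over replicates; robust z-score without drug; synergy score for each of BYL719, cetuximab and trametinib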
- Scale: viability z-score, no drug: higher = more cells remaining; strongly negative means essential gene
- Call rule: 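Called essential if the drug-free knock-down gives a robust viability z-score below -3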
- Meaning of the calls: active = essential (knock-down alone); inactive = no change

| gene | viability z-score, no drug | Outcome |
| --- | --- | --- |
| FGFR1 | 0.842 | inactive |
| MARK2 | 0.842 | inactive |
| BCOR | 0.842 | inactive |
| IP6K1 | 0.842 | inactive |
| BUB1 | 0.842 | inactive |
| FGFR3 | 0.708 | inactive |
| PFKFB3 | -2.24 | inactive |
| PRKACB | 0.842 | inactive |
| ADCK1 | 0.175 | inactive |
| GNAS | -1 | inactive |
| MAP2K3 | -0.896 | inactive |
| TRPM7 | -0.063 | inactive |
| SRPK1 | 0.842 | inactive |
| LIMK2 | 0.842 | inactive |
| PKN1 | 0.316 | inactive |
| PCK1 | 0.842 | inactive |
| CDK5R1 | 0.842 | inactive |
| NUAK2 | -1.93 | inactive |
| FBXW7 | 0.842 | inactive |
| GRK6 | 0.842 | inactive |
| CIB2 | 0.671 | inactive |
| MAP4K4 | 0.842 | inactive |
| CDK2 | 0.842 | inactive |
| MPP3 | -3.47 | active |
| MAP3K6 | 0.842 | inactive |
| OXSR1 | -0.431 | inactive |
| CAMKK2 | -0.872 | inactive |
| TTK | -0.364 | inactive |
| PHKG1 | -0.457 | inactive |
| AAK1 | -0.0431 | inactive |
| AXL | 0.0758 | inactive |
| MAP3K19 | -0.7 | inactive |
| KSR2 | 0.32 | inactive |
| PIP5KL1 | -0.372 | inactive |
| DGKQ | 0.842 | inactive |
| PFKFB4 | 0.773 | inactive |
| ERN1 | -1.63 | inactive |
| TEX14 | 0.842 | inactive |
| DGKB | -1.68 | inactive |
| PHKB | 0.842 | inactive |
| PKIA | -1.67 | inactive |
| CKB | 0.842 | inactive |
| EIF2AK2 | -1.16 | inactive |
| NRAS | 0.842 | inactive |
| MAP3K10 | 0.842 | inactive |
| PTK2 | -0.0937 | inactive |
| CDK8 | 0.842 | inactive |
| PKIB | 0.842 | inactive |
| MYLK | -2.03 | inactive |
| SMAD4 | -1.59 | inactive |

Targets above whose gene name starts with N or n:
| gene | viability z-score, no drug | Outcome |
| --- | --- | --- |
| NUAK2 | -1.93 | inactive |
| NRAS | 0.842 | inactive |
